Results deposited as PubChem BioAssay AID1224827 (NIAID, 2016).
Shown is a random part of about 3,800 reagents tested. Of all reagents, about 2,200 (57%) got an active call. 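Active means a strong reporter change in either direction; calls are per siRNA, not per gene; qiagen siRNAs gave weaker effects.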 A number with no mark means an inactive call. Reagents against one gene are numbered here.

- Screen: 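Identify regulators of the macrophage TNF-alpha response to bacterial LPS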 (follow-up of hits)
- Cell system: RAW264.7 G9 mouse macrophage reporter clone
- Knock-down reagent: single siRNA against mouse genes, 100 nM siRNA
- Timing: siRNA for 2 days, then LPS about 16 h
- Challenge: bacterial lipopolysaccharide (LPS), 10 ng/ml, cells fixed after overnight (about 16 h) stimulation
- Detection: 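TNF promoter reporter red fluorescence in nuclei, background subtracted, normalised per plate and to non-targeting control siRNA, as z-scores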
- Direction: TNF reporter z-score, mean and TNF reporter z-score: higher = stronger Tnf promoter reporter signal; gene median z, three same-vendor siRNAs: higher = stronger Tnf reporter signal for the gene
- Call rule: 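An siRNA is called active when its mean z-score over replicates is at least +2 or at most -2; control wells get no call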

target | reagent no. | TNF reporter z-score, mean | gene median z, three same-vendor siRNAs | TNF reporter z-score, repeat 1 | TNF reporter z-score, repeat 2
Batf3 | 1 | 1.21 | -3.28 | -0.0264 | 2.46
Batf3 | 2 | -3.71 (active) | -3.28 | -2.84 | -4.59
Batf3 | 3 | -4.04 (active) | -3.28 | -3.71 | -4.38
Batf3 | 4 | 4.6 (active) | 0.586 | 7.45 | 1.74
Batf3 | 5 | 0.707 | 0.586 | 1.99 | -0.571
Batf3 | 6 | -3.18 (active) | 0.586 | -3.55 | -2.8
Polr2d | 1 | -4.17 (active) | -4.57 | -4.56 | -3.77
Polr2d | 2 | -4.22 (active) | -4.57 | -3.86 | -4.58
Polr2d | 3 | -5.06 (active) | -4.57 | -4.72 | -5.4
Polr2d | 4 | 0.296 | -2.31 | 2.54 | -1.95
Polr2d | 5 | -0.319 | -2.31 | 2.03 | -2.67
Polr2d | 6 | -4.97 (active) | -2.31 | -5.08 | -4.86
Add2 | 1 | -0.251 | -3.06 | -0.551 | 0.0484
Add2 | 2 | -3.53 (active) | -3.06 | -3.19 | -3.87
Add2 | 3 | -3.74 (active) | -3.06 | -4.55 | -2.94
Add2 | 4 | 1.93 | -1.59 | 3.5 | 0.346
Add2 | 5 | -1.59 | -1.59 | -1.44 | -1.74
Add2 | 6 | -3.21 (active) | -1.59 | -3.43 | -2.98
Med14 | 1 | 1.3 | -1.9 | 1.23 | 1.37
Med14 | 2 | -1.9 | -1.9 | -1.9 | -1.9
Med14 | 3 | -3.63 (active) | -1.9 | -3.79 | -3.46
Med14 | 4 | -0.105 | -1.5 | 1.4 | -1.61
Med14 | 5 | -1.59 | -1.5 | -1.38 | -1.8
Med14 | 6 | -1.35 | -1.5 | -0.216 | -2.49
Bambi | 1 | -4.62 (active) | -4.95 | -4.46 | -4.77
Bambi | 2 | -4.87 (active) | -4.95 | -5.24 | -4.5
Bambi | 3 | -5.45 (active) | -4.95 | -5.14 | -5.77
Bambi | 4 | 1.78 | -0.291 | 3.37 | 0.186
Bambi | 5 | 0.24 | -0.291 | 1.25 | -0.768
Bambi | 6 | -3.59 (active) | -0.291 | -4.04 | -3.13
Txnl4a | 1 | 3.49 (active) | -3.53 | 4.87 | 2.12
Txnl4a | 2 | -3.53 (active) | -3.53 | -4.02 | -3.04
Txnl4a | 3 | -4.46 (active) | -3.53 | -4.25 | -4.68
Txnl4a | 4 | 1.24 | -0.374 | 2.39 | 0.103
Txnl4a | 5 | -0.301 | -0.374 | 0.25 | -0.852
Txnl4a | 6 | -1.84 | -0.374 | -1.74 | -1.93

Part of the list above, showing only “TNF reporter z-score, mean”.
Batf3 #5	0.707
Batf3 #6	-3.18 (active)
Polr2d #1	-4.17 (active)
Polr2d #2	-4.22 (active)

The results go on.
target | reagent no. | TNF reporter z-score, mean | gene median z, three same-vendor siRNAs | TNF reporter z-score, repeat 1 | TNF reporter z-score, repeat 2
Xpa | 1 | 2.94 (active) | 0.645 | 1.83 | 4.04
Xpa | 2 | -0.144 | 0.645 | -0.882 | 0.594
Xpa | 3 | -0.205 | 0.645 | -1.11 | 0.696
Xpa | 4 | 3.69 (active) | 0.641 | 6.51 | 0.873
Xpa | 5 | 1.71 | 0.641 | 4.17 | -0.751
Xpa | 6 | 0.195 | 0.641 | -0.0196 | 0.409
Grap | 1 | -1.09 | -3.62 | -1.18 | -0.997
Grap | 2 | -3.96 (active) | -3.62 | -3.57 | -4.35
Grap | 3 | -4.42 (active) | -3.62 | -5.18 | -3.67
Grap | 4 | 1.64 | 0.211 | 2.65 | 0.641
Grap | 5 | 0.683 | 0.211 | 1.58 | -0.218
Grap | 6 | -2.22 (active) | 0.211 | -2.62 | -1.81
Nfe2 | 1 | -1.29 | -3.54 | -2.92 | 0.35
Nfe2 | 2 | -3.77 (active) | -3.54 | -2.45 | -5.09
Nfe2 | 3 | -4.78 (active) | -3.54 | -4.15 | -5.4
Nfe2 | 4 | 5.45 (active) | 2.12 | 8.14 | 2.77
Nfe2 | 5 | 0.865 | 2.12 | 0.202 | 1.53
Nfe2 | 6 | 1.21 | 2.12 | 2.71 | -0.281
Gxylt2 | 1 | 5.56 (active) | -1.99 | 6.13 | 4.99
Gxylt2 | 2 | -1.99 | -1.99 | -2.39 | -1.58
Gxylt2 | 3 | -5.74 (active) | -1.99 | -5.19 | -6.28
Gxylt2 | 4 | 0.219 | -2.57 | 1.08 | -0.641
Gxylt2 | 5 | -2.57 (active) | -2.57 | -2.08 | -3.05
Gxylt2 | 6 | -3.89 (active) | -2.57 | -4.08 | -3.7
